# Changes are numbered by the printed parent chain. Results are given in words; binding and its absence hold for the method and conditions named. In cells and extracts the contact can be indirect. Here binding means that the protein was enriched with, or labelled near, the bait; the list need not be complete. For some assays here: Sequences can lack the tags named with a protein.
# The chains behind the UniProt entries cited, without tags or fusion partners. Where a name states a change or a piece, a line headed by the entry shows the natural chain unless it says otherwise. Residues count along the entry.
# UniProt Q9NR28: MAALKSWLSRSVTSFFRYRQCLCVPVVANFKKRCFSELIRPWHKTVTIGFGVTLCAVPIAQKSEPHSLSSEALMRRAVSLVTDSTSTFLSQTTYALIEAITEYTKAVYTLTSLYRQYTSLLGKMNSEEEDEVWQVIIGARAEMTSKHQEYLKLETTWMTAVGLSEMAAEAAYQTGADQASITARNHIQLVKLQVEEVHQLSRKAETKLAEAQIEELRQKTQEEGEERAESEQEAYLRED
# UniProt Q14318: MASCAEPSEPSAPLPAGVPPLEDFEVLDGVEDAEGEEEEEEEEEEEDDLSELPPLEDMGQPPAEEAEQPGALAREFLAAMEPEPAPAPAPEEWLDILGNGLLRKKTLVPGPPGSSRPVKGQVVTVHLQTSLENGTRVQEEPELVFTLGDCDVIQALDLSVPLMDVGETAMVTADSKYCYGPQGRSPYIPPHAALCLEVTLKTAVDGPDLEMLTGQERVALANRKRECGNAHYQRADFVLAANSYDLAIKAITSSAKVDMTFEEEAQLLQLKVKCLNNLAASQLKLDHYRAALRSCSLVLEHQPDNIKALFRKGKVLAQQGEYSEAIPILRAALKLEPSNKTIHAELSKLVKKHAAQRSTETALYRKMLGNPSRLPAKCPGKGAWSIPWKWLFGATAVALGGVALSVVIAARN
# UniProt Q8IXI1: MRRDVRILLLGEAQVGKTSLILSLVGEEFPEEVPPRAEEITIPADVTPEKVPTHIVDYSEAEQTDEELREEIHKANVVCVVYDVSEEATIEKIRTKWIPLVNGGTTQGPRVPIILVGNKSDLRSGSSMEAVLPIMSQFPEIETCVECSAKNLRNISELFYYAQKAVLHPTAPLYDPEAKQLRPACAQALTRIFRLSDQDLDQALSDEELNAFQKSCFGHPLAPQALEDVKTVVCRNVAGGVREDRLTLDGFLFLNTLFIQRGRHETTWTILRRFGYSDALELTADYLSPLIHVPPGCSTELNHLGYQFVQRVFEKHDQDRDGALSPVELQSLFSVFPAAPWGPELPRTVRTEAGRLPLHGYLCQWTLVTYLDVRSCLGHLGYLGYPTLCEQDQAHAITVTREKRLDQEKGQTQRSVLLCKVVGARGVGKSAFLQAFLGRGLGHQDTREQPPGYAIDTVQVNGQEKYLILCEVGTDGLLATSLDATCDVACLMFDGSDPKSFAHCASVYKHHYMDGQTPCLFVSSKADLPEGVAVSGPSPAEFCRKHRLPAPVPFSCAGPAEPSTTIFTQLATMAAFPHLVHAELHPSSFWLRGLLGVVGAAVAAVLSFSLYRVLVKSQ
# UniProt Q9Y4W6, residues 67-797: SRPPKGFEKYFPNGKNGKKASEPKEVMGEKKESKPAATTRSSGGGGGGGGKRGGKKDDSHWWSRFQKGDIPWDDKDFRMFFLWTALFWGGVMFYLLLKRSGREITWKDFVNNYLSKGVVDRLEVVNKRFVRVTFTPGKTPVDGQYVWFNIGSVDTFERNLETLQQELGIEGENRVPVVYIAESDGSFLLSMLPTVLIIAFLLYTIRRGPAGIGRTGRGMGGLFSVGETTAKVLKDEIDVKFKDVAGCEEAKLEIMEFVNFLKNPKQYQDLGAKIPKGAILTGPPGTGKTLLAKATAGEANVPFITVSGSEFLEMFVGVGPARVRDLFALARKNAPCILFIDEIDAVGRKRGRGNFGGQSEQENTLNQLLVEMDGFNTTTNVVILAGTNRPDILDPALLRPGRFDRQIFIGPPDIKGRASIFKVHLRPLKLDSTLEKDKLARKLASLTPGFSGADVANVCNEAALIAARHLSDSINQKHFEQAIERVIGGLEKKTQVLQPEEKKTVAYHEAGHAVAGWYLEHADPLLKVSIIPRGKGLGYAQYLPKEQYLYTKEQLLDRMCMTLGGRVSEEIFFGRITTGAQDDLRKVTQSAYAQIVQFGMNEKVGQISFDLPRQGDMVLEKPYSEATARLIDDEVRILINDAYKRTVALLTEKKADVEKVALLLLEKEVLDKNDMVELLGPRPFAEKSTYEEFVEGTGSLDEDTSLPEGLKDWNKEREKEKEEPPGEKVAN
# UniProt O00429: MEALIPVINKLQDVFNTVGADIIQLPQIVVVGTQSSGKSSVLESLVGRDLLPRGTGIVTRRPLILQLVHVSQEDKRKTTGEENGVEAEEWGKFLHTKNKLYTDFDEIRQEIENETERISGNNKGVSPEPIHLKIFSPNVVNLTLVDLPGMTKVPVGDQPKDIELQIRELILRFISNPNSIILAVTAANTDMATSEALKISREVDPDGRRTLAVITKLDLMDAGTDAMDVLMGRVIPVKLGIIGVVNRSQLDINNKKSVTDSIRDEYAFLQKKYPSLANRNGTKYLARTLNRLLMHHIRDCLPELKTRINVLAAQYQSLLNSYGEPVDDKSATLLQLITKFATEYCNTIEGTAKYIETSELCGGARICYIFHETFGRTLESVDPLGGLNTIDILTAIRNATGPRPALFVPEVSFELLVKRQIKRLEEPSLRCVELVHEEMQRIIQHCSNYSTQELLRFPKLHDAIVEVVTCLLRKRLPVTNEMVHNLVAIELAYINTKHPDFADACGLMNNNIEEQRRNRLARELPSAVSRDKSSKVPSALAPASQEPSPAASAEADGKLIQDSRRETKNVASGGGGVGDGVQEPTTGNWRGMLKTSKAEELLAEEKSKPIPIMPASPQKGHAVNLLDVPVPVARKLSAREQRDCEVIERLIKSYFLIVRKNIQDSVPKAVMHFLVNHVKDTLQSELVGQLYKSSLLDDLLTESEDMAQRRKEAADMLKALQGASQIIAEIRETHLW
# UniProt A4D1E9: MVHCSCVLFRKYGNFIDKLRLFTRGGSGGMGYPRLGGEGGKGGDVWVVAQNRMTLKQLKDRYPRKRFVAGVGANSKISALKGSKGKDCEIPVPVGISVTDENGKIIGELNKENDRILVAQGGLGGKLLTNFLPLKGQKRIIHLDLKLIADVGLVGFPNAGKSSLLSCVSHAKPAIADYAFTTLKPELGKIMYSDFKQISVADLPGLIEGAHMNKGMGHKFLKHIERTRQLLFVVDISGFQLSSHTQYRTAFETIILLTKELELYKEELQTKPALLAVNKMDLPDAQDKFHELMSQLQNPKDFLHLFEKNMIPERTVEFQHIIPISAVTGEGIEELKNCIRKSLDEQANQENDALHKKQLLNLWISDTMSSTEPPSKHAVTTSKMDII
# UniProt O00165: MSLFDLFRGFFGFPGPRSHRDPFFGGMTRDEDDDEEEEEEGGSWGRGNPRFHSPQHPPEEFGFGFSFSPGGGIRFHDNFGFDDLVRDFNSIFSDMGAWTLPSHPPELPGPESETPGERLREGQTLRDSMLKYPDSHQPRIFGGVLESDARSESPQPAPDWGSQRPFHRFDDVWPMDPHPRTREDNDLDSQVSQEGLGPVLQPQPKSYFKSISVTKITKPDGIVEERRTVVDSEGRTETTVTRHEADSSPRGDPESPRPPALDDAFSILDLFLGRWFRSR
# UniProt Q7Z434: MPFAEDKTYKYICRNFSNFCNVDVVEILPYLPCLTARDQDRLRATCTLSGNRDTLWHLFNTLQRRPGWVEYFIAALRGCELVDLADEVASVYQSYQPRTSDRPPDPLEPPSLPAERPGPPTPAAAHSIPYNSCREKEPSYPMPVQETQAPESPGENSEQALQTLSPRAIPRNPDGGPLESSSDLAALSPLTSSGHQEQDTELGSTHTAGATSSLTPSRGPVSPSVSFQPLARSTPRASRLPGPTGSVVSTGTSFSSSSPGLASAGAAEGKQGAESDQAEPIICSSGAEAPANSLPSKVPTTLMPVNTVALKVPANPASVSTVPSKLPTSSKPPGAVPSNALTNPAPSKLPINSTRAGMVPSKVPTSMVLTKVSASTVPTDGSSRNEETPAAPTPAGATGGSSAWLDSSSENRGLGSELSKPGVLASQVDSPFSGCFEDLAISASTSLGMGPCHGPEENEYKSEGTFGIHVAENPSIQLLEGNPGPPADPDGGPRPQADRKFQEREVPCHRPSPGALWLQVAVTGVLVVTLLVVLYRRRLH
# UniProt P03891: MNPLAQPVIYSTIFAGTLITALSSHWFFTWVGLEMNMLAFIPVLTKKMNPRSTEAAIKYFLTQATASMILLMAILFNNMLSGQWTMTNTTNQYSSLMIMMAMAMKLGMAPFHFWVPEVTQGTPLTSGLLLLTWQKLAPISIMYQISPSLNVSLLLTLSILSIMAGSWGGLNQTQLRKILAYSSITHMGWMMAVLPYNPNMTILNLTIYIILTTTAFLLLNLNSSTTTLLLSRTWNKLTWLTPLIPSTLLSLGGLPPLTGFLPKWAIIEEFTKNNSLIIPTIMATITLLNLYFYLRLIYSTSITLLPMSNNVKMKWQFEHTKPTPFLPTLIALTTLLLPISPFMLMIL
# UniProt Q9Y375, residues 25-327: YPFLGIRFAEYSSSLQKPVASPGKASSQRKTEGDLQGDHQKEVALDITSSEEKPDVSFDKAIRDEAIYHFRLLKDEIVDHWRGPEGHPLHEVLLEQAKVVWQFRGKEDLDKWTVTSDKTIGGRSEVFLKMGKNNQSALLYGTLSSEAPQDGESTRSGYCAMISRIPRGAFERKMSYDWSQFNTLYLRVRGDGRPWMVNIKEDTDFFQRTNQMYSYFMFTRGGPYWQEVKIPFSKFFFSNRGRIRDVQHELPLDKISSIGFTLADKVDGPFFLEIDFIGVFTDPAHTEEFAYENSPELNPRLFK
# UniProt Q15118, residues 29-436: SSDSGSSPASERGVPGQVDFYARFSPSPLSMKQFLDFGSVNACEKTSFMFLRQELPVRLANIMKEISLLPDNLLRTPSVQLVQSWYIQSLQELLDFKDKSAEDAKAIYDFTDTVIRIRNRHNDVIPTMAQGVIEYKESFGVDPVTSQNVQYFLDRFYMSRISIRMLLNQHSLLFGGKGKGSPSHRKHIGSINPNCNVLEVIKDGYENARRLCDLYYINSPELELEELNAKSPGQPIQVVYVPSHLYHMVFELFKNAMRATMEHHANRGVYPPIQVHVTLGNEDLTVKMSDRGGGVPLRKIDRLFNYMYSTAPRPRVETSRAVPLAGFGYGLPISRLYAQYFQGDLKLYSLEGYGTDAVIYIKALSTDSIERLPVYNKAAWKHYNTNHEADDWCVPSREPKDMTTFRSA
# UniProt P13861: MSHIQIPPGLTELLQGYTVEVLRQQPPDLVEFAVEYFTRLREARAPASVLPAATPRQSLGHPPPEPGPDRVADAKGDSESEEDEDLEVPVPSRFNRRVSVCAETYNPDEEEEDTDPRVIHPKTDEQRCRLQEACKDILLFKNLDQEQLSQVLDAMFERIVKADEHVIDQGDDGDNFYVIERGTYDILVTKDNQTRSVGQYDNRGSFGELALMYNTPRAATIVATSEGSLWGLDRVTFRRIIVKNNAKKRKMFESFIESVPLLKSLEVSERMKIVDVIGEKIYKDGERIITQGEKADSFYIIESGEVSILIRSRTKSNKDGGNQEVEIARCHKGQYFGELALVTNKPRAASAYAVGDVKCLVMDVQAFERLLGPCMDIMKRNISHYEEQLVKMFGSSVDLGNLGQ
# UniProt P31323: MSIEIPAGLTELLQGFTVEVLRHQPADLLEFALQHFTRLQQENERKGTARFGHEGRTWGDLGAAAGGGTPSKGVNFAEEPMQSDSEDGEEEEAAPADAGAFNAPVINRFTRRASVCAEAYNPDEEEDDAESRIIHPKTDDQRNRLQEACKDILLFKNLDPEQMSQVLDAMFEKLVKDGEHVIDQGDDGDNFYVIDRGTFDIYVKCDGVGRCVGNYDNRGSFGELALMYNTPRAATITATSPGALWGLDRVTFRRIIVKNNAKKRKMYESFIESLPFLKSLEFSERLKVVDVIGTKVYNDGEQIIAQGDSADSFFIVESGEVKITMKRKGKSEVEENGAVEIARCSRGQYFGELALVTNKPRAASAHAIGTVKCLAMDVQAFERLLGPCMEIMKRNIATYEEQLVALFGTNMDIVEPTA
# Key:
# Experiment in all cases: proximity labelling
# [1] = target: T1, EXD2-M126A-BirA*-FLAG (human) (UniProt Q9NVH0)
# T1 sequence: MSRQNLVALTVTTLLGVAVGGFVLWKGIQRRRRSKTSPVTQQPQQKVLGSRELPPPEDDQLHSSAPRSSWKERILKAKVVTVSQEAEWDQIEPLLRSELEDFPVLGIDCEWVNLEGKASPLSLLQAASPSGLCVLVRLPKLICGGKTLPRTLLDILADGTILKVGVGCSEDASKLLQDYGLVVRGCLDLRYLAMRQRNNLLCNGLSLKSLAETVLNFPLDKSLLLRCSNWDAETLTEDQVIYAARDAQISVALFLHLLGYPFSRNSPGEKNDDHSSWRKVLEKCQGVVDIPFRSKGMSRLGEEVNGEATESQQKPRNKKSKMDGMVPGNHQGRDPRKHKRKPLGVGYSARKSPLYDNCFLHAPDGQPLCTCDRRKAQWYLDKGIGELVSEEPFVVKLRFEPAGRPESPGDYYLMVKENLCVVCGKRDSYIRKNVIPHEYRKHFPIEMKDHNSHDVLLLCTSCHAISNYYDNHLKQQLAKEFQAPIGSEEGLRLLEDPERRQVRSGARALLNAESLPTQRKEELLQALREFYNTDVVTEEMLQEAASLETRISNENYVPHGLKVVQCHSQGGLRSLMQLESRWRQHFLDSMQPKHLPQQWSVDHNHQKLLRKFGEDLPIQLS
# [2] = target: T2, EXD2-iso2-BirA*-FLAG (human) (UniProt Q9NVH0)
# T2 sequence: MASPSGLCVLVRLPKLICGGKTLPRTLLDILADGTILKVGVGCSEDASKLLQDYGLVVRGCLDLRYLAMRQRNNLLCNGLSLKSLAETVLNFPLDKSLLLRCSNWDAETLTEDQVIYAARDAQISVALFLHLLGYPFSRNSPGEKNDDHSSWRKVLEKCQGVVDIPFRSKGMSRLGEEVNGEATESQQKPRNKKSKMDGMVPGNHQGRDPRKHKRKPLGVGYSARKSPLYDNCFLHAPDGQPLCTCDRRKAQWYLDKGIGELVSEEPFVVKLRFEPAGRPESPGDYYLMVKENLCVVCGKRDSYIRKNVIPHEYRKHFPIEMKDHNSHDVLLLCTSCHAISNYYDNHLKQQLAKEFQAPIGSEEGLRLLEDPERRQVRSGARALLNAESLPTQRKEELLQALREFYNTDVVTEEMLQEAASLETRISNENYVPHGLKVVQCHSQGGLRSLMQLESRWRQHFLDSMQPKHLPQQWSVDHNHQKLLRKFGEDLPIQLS
# [3] = target: T3, EXD2-iso1-BirA*-FLAG (human) (UniProt Q9NVH0)
# T3 sequence: T1 sequence with A126M
# [4] = target: DIABLO-BirA*-FLAG (human) (UniProt Q9NR28)
# BirA*-FLAG-FKBP8 (human) = BirA*-FLAG-FKBP8 (human) (UniProt Q14318)
# RMDN3-BirA*-FLAG (human) = target: T4, RMDN3-BirA*-FLAG (human) (UniProt Q96TC7)
# T4 sequence: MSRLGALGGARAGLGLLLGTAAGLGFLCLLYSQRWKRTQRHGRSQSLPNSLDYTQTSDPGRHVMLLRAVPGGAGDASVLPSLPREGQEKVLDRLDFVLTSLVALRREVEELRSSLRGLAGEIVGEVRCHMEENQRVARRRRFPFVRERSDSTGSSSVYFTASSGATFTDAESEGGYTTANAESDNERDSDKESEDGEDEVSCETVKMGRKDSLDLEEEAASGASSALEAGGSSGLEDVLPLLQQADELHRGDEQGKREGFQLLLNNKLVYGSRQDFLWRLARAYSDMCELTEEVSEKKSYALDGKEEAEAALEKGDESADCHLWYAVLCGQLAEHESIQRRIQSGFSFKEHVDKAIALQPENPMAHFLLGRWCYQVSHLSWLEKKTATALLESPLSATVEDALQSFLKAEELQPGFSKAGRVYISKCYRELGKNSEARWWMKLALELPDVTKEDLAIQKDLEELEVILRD
# [5] = target: RHOT2 BirA*-FLAG bait (human) (UniProt Q8IXI1)
# [6] = target: T5, PTPN1 BirA*-FLAG bait (human) (UniProt P18031)
# T5 sequence: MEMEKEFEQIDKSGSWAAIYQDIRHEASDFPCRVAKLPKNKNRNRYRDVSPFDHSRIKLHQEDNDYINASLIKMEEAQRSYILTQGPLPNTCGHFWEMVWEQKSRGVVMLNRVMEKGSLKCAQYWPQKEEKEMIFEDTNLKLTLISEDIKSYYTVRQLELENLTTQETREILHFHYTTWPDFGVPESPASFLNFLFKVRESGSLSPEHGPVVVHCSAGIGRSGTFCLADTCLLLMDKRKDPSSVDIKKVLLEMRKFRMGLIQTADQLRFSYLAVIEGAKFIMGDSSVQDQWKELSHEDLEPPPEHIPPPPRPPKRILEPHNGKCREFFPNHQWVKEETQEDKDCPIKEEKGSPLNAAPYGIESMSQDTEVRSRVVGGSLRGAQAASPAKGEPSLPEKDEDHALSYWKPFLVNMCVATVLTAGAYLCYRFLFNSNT
# [7] = target: T6, SLC25A46 BirA*-FLAG bait (human) (UniProt Q96AG3)
# T6 sequence: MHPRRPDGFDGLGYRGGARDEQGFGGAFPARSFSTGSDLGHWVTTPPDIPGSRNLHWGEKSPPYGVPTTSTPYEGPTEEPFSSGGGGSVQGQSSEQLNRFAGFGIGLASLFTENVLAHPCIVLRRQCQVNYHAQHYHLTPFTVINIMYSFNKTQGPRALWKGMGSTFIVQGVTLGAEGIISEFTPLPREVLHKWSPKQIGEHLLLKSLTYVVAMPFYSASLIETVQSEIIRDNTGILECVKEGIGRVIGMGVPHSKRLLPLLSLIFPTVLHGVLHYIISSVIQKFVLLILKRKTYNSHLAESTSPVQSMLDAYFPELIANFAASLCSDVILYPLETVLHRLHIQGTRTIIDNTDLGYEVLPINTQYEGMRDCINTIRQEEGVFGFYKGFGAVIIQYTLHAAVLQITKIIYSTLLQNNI
# [8] = target: T7, MTRF1L-BirA*-FLAG (human) (UniProt Q9UGC7)
# T7 sequence: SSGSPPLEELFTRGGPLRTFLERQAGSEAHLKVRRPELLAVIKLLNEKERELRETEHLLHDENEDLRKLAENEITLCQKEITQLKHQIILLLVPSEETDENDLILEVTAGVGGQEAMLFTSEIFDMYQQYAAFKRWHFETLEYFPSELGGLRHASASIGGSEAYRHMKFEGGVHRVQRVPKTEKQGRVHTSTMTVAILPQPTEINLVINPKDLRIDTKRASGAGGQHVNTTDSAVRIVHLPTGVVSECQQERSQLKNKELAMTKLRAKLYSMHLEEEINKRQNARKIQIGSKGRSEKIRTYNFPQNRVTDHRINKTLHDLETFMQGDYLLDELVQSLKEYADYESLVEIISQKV
# [9] = target: T8, BirA*-FLAG-SLC25A12 (human) (UniProt O75746)
# T8 sequence: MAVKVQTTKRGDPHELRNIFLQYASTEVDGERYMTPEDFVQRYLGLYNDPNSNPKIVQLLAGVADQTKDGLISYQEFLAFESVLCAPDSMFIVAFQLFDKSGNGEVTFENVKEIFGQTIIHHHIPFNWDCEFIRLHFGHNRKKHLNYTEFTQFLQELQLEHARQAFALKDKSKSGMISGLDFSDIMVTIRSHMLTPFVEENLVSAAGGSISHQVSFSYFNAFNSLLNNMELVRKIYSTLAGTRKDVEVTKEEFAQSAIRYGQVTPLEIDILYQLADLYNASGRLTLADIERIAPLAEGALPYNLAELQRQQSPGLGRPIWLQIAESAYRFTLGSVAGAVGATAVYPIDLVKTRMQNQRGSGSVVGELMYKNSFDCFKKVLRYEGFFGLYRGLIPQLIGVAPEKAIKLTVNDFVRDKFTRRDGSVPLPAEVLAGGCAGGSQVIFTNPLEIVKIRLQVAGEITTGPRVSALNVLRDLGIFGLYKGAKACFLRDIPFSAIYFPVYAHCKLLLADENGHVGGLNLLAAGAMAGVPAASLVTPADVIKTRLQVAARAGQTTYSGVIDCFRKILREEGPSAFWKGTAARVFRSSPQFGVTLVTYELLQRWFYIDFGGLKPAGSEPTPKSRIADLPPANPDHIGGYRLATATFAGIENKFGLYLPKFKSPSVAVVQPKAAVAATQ
# ACAD9-BirA*-FLAG (human) = target: T9, ACAD9-BirA*-FLAG (human) (UniProt Q9H845)
# T9 sequence: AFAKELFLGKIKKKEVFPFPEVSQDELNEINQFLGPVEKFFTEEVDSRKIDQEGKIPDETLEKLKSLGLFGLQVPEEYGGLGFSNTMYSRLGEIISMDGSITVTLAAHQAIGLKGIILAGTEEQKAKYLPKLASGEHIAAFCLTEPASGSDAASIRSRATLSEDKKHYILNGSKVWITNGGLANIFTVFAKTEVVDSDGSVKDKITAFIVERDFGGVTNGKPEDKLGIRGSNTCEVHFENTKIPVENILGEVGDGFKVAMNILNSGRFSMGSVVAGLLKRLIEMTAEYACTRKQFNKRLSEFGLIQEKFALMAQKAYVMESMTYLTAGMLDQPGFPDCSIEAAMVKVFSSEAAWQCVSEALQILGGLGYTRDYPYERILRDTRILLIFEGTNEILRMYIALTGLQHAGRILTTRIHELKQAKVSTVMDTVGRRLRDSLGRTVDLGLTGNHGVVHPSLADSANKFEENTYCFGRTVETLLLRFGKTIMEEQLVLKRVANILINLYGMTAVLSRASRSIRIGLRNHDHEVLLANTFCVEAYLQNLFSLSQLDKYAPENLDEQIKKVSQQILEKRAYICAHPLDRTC
Substance,binding (BirA*-FLAG-FKBP8 (human)),binding (RMDN3-BirA*-FLAG (human)),binding [5],binding [6],binding [7],also measured
AFG3L2 (from UniProt Q9Y4W6 67-797),–,–,–,–,–,binding [1]: binds; binding [2]: binds; binding [3]: binds
BIRC6 (from UniProt Q9NR09 1-4857),–,–,–,–,–,binding [4]: binds
DNM1L (from UniProt O00429 1-736),binds,binds,binds,binds,binds,–
GTPBP10 (from UniProt A4D1E9 1-387),–,–,–,–,–,binding [8]: binds
HAX1 (from UniProt O00165 1-279),–,–,–,–,–,binding [9]: binds
MAVS (from UniProt Q7Z434 1-540),binds,binds,binds,binds,binds,–
ND2 protein (from UniProt P03891 1-347),–,–,–,–,–,binding (ACAD9-BirA*-FLAG (human)): binds
NDUFAF1 (from UniProt Q9Y375 25-327),–,–,–,–,–,binding [8]: binds
PDK1 (from UniProt Q15118 29-436),–,–,–,–,–,binding (ACAD9-BirA*-FLAG (human)): binds
PRKAR2A (from UniProt P13861 1-404),binds,binds,binds,binds,binds,–
PRKAR2B (from UniProt P31323 1-418),binds,binds,binds,binds,binds,–
